Test results reported in paper PMC8761633.
No constants are given. Whether binding was seen depends on the method and setting. Binding seen in cells or lysates may run through a third protein. Some results given as binding are weak or reduced against the parent protein; the word gives no strength. Sequences can lack the tags named with a protein.

Target: T1, FLAG-tagged fruitfly Drosha (fruitfly (Drosophila melanogaster)) (UniProt Q7KNF1)
T1 sequence: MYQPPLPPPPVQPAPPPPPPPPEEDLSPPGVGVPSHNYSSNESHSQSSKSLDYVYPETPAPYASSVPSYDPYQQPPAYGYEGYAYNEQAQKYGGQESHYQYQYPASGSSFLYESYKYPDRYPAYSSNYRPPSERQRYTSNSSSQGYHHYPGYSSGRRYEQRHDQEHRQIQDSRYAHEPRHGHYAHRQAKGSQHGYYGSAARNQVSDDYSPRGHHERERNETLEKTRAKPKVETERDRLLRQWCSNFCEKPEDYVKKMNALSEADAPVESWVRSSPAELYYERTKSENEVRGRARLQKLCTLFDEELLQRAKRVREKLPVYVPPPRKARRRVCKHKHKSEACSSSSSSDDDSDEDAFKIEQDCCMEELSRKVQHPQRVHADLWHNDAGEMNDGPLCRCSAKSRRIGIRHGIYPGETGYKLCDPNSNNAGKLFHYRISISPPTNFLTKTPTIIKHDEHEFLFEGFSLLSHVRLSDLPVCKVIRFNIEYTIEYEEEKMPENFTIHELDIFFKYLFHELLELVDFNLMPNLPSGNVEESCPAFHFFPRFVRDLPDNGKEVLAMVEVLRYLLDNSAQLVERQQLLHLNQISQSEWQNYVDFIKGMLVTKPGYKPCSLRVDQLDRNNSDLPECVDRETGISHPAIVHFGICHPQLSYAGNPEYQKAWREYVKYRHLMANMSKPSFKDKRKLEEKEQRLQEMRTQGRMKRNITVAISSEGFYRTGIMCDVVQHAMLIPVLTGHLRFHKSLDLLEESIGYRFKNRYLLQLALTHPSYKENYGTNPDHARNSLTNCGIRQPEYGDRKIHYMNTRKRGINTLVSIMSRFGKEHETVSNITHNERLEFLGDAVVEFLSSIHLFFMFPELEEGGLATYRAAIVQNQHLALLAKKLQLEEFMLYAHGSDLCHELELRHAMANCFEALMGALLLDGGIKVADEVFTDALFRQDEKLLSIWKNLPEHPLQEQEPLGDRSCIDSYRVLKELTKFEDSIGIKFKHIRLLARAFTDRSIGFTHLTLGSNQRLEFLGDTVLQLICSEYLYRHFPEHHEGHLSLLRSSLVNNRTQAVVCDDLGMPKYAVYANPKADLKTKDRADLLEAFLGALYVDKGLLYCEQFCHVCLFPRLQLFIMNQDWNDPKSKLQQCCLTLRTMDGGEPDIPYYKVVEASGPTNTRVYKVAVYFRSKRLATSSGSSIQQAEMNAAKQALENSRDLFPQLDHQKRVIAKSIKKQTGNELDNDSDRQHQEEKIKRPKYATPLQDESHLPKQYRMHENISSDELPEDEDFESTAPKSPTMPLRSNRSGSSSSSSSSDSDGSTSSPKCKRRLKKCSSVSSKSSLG
Test: co-IP; 293T cells co-transfected with FLAG-Drosha and Myc-DGCR8; immunoprecipitation with an anti-FLAG antibody; proteins detected by gel electrophoresis and Coomassie staining

B1: Myc-tagged fruitfly DGCR8 (Pasha) (protein, UniProt Q9V9V7 1-642)
chain: MAEKPLADCPDSGQVRKRPRLEDEEQELKVAGFSLSAIEEMRRTRDNELQNEPMDQQLRQFQVLDEVGSGSDEDDESDNASEQQGGRYGEGGDEEEEAADGDGEEYDSSEFDDDEIENLLDEKLPEELRESKQPKYEQRFKTVLEEKRLNHFEVLPEGWVQVTHNSGMPLFLHRKTRVCCASRPYFLGTGSARKHAVPLGAIPCLNYRRALEEESEVEQQKTDGAPPVAVCPMAGASALPAEAMDVEGKENNEGSTDSKTQPDGITALMPAAKIVTVNENTQKESITPEQLNTYCQKLFKFKVIRVLRFRSWNARRKFTKNRKHIKNIQRPTLPDGTKLIKFPILANAGEGSTNPRGRKEWIMNPNGKSFVCILHEYVQHALKTQPTYEFKELQNAATPYSATVSVNNLKYGTGYGTSKKQAKSEAARETLEILIPDVKDKITGNNKDQKSGTAKKAQSDLSVFDDIRIEDPRVTEFCNKTTEPSPNAILLTCLQRNYGSDVQISQEINRTANNKNEFTMTVGKHTAKVVCKNKREGKQLASQAILQILHPHIQTWGSLLRLYGNNSIKTFKEKKLEEQEITVLQSKAAVNQPNYAILDKLKSEMLKLCAKQESVLTMGTFVPPSDVDLPTSSGSNLNNVEL
For B1, the binding was “binds”.
